Source: PubChem BioAssay AID743121 (NCATS, 2013)
Aim: 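Knock-downs that sensitise breast cancer cells to camptothecin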 (primary screen). Cell system: MDA-MB-231 cells, a human breast cancer line. Reagent: single siRNA against human genes, 20 nM siRNA (0.8 pmol per well). Duration: 120 h (drug added 48 h after transfection, read 72 h later). Challenge: camptothecin 20 nM (about EC30) for 72 h; vehicle 0.1% DMSO in parallel plates. Measurement: 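CellTiter-Glo ATP signal, scaled to control siRNA as percent viability; sensitisation given as log2 of untreated divided by camptothecin-treated viability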. Direction: log2 vehicle/camptothecin viability: higher = stronger sensitisation to camptothecin. Active means: 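Each gene scored by redundant siRNA activity (RSA) over its individual siRNA ratios; a gene is called active at p < 0.001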.
Shown is an unselected part of about 26,000 reagents tested. Over the whole deposit, 167 (0.63%) got an active call. 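Calls are per gene from RSA p-values that are not deposited; an individual active-marked siRNA can sensitise only weakly.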 Reagents against one gene are numbered here. Not all columns of the deposit are shown.

Gene | reagent no. | log2 vehicle/camptothecin viability | outcome
CEACAM1 (CEA cell adhesion molecule 1) | 1 | -0.119 | inactive
CEACAM1 (CEA cell adhesion molecule 1) | 2 | 0.493 | inactive
CEACAM1 (CEA cell adhesion molecule 1) | 3 | 0.317 | inactive
CEACAM1 (CEA cell adhesion molecule 1) | 4 | -0.199 | inactive
RPL7A (ribosomal protein L7a) | 1 | -0.846 | inactive
RPL7A (ribosomal protein L7a) | 2 | -0.296 | inactive
RPL7A (ribosomal protein L7a) | 3 | -0.472 | inactive
AIFM1 (apoptosis inducing factor mitochondria associated 1) | 1 | -0.283 | inactive
AIFM1 (apoptosis inducing factor mitochondria associated 1) | 2 | 0.45 | inactive
AIFM1 (apoptosis inducing factor mitochondria associated 1) | 3 | -0.411 | inactive
AIFM1 (apoptosis inducing factor mitochondria associated 1) | 4 | -0.0283 | inactive
AIFM1 (apoptosis inducing factor mitochondria associated 1) | 5 | -0.118 | inactive
AIFM1 (apoptosis inducing factor mitochondria associated 1) | 6 | -0.257 | inactive
AIFM1 (apoptosis inducing factor mitochondria associated 1) | 7 | 0.0671 | inactive
AIFM1 (apoptosis inducing factor mitochondria associated 1) | 8 | -0.153 | inactive
PACSIN1 (protein kinase C and casein kinase substrate in neurons 1) | 1 | -0.67 | inactive
PACSIN1 (protein kinase C and casein kinase substrate in neurons 1) | 2 | 1.3 | inactive
PACSIN1 (protein kinase C and casein kinase substrate in neurons 1) | 3 | -0.185 | inactive
PACSIN1 (protein kinase C and casein kinase substrate in neurons 1) | 4 | -0.19 | inactive
CACNA1A (calcium voltage-gated channel subunit alpha1 A) | 1 | 0.553 | inactive
CACNA1A (calcium voltage-gated channel subunit alpha1 A) | 2 | -0.466 | inactive
CACNA1A (calcium voltage-gated channel subunit alpha1 A) | 3 | -0.23 | inactive
CACNA1A (calcium voltage-gated channel subunit alpha1 A) | 4 | 0.0491 | inactive
ACKR2 (atypical chemokine receptor 2) | 1 | -0.395 | inactive
ACKR2 (atypical chemokine receptor 2) | 2 | 0.224 | inactive
ACKR2 (atypical chemokine receptor 2) | 3 | 0.121 | inactive
ACKR2 (atypical chemokine receptor 2) | 4 | -0.155 | inactive
UBTD2 (ubiquitin domain containing 2) | 1 | 0.0611 | inactive
UBTD2 (ubiquitin domain containing 2) | 2 | -0.197 | inactive
UBTD2 (ubiquitin domain containing 2) | 3 | 0.0306 | inactive
UBTD2 (ubiquitin domain containing 2) | 4 | -0.253 | inactive
GCH1 (GTP cyclohydrolase 1) | 1 | -0.324 | inactive
GCH1 (GTP cyclohydrolase 1) | 2 | -0.202 | inactive
GCH1 (GTP cyclohydrolase 1) | 3 | -0.269 | inactive
GCH1 (GTP cyclohydrolase 1) | 4 | -0.356 | inactive
SNUPN (snurportin 1) | 1 | -0.157 | inactive
SNUPN (snurportin 1) | 2 | 0.0632 | inactive
SNUPN (snurportin 1) | 3 | 0.0363 | inactive
SNUPN (snurportin 1) | 4 | 0.275 | inactive
PRKCD (protein kinase C delta) | 1 | -0.0714 | inactive
PRKCD (protein kinase C delta) | 2 | 0.24 | inactive
PRKCD (protein kinase C delta) | 3 | 0.262 | inactive
PRKCD (protein kinase C delta) | 4 | -0.465 | inactive
IL27RA (interleukin 27 receptor subunit alpha) | 1 | 0.189 | inactive
IL27RA (interleukin 27 receptor subunit alpha) | 2 | 0.0941 | inactive
IL27RA (interleukin 27 receptor subunit alpha) | 3 | 0.0601 | inactive
HCRTR1 (hypocretin receptor 1) | 1 | 0.11 | inactive
HCRTR1 (hypocretin receptor 1) | 2 | -0.105 | inactive
HCRTR1 (hypocretin receptor 1) | 3 | -0.0237 | inactive
CYLD (CYLD lysine 63 deubiquitinase) | 1 | -0.0229 | inactive
CYLD (CYLD lysine 63 deubiquitinase) | 2 | 0.0855 | inactive
CYLD (CYLD lysine 63 deubiquitinase) | 3 | 0.0252 | inactive
CYLD (CYLD lysine 63 deubiquitinase) | 4 | -0.911 | inactive
LAMP2 (lysosome associated membrane protein 2) | 1 | -0.63 | inactive
LAMP2 (lysosome associated membrane protein 2) | 2 | -0.0399 | inactive
LAMP2 (lysosome associated membrane protein 2) | 3 | -0.185 | inactive
LAMP2 (lysosome associated membrane protein 2) | 4 | -0.316 | inactive
HCN3 | 1 | -0.342 | inactive
HCN3 | 2 | -0.268 | inactive
HCN3 | 3 | 0.133 | inactive
HCN3 | 4 | 0.185 | inactive
STX11 (syntaxin 11) | 1 | -0.276 | inactive
STX11 (syntaxin 11) | 2 | -0.582 | inactive
STX11 (syntaxin 11) | 3 | -0.447 | inactive
STX11 (syntaxin 11) | 4 | -0.0577 | inactive
TNFSF9 (TNF superfamily member 9) | 1 | -0.449 | inactive
TNFSF9 (TNF superfamily member 9) | 2 | -0.348 | inactive
TNFSF9 (TNF superfamily member 9) | 3 | -0.542 | inactive
TNFSF9 (TNF superfamily member 9) | 4 | -0.48 | inactive

Looked up above:
Result for CEACAM1 (CEA cell adhesion molecule 1) #2 in “log2 vehicle/camptothecin viability”: 0.493
SNUPN (snurportin 1) #2, outcome = inactive
Result of PRKCD (protein kinase C delta) #4 in “outcome”: inactive
Value of HCN3 #1 in “log2 vehicle/camptothecin viability”: -0.342
PACSIN1 (protein kinase C and casein kinase substrate in neurons 1) #1, outcome = inactive
AIFM1 (apoptosis inducing factor mitochondria associated 1) #2, log2 vehicle/camptothecin viability = 0.45
